Laboratory results as given in patent US12017976B1, “1-(4-carbonoimidoylphenoxy)-3-{4-[(e)-(phenylimino)methyl]phenoxy }propan-2-ol as an eco-friendly insecticidal agent against Spodoptera littoralis (boisd.)” (KING FAISAL UNIVERSITY, priority 2024, dated 2024).

Test system: Spodoptera littoralis larvae (2nd and 4th instar)
Assay: Insecticidal leaf dip bioassay on larvae of the laboratory strain of cotton leafworm
Details: probit (LDP-line) regression slope, 72 hours

CCOC(=O)NCCOc1ccc(Oc2ccccc2)cc1 [fenoxycarb]
Slope, 2nd instar larvae (2nd instar larvae): 0.298 ± 0.0808 | Slope, 4th instar larvae (4th instar larvae): 0.225 ± 0.0870
